Source: PubChem BioAssay AID540256 (National Center for Advancing Translational Sciences (NCATS), 2011)
Where “and” joins values, the source holds several entries; their conditions need not be identical. Equal values may be shown once. Out of some 300,000 compounds screened, about 3,700 (1.2%) were called active. Inconclusive results, whose numbers are uncertain, are shown with a selection of clear calls. Calls follow the shape of the full dose curve; tested in HEK293 cells. Potencies of inconclusive entries are doubtful fits and often do not repeat.

Assay: qHTS for Inhibitors of binding or entry into cells for Lassa Virus; also: nearly all actives have a fitted effect of over 50% in size
Conditions: Lassa virus pseudotype entry inhibition, cell reporter; activity change, negative = inhibition: at 37.9 µM (top of the series) unless noted
% is scaled to controls: 0 for no effect and ±100 for the full control effect; potency is read from the fitted curve at half-maximal effect.

Compound	activity change, negative = inhibition	Potency
Cc1ccc(/C=N/N2CCN(Cc3ccccc3)CC2)s1	inactive: 7.99%	
Cc1ccc2nc(SCC(=O)NCc3cccs3)[nH]c2c1		inconclusive: 35.5 µM [inhibitor, single point]
Cc1cc[n+](CC(=O)c2ccccc2)c2ccccc12		inconclusive: 12.6 µM [inhibitor, single point]
CCn1c(=NC(=O)CS(=O)(=O)c2ccc(C)cc2)sc2cccc(OC)c21		inconclusive: 31.6 µM [inhibitor, single point]
CC(=O)Nc1ccc(N/C=C/C(=O)c2ccc(C)o2)cc1	inactive: 20.3%	
CCCCOC(=O)c1ccc(NC(=O)COC(=O)CSc2nc(C)cc(C)n2)cc1		inconclusive: 23.1 µM [activator, partial curve, poor fit]
CC(C)(C)c1ccc(OCCC(=O)Nc2cccc(S(=O)(=O)N3CCCCC3)c2)cc1		inconclusive: 5.62 µM [inhibitor, single point]
O=C(Nc1ccc2c(c1)OCCO2)C(=S)NCc1ccccc1	inactive: 25.1%	
CCOc1ccccc1C(=O)OCC(=O)Nc1nnc(-c2ccccc2)o1		inconclusive: 1.58 µM [activator, partial curve, poor fit]
Cn1c(=O)cc(NCCc2ccccc2)[nH]c1=O		inconclusive: 14.1 µM [inhibitor, single point]
O=[N+]([O-])c1ccc(-c2nc(NCc3ccccc3)c3ccccc3n2)cc1	inactive: -13.9%	
O=C(Nc1cccc(C(F)(F)F)c1)C(Sc1ncnc2ccccc12)c1ccccc1 (centres undefined)	inactive: 0.399%	
CCOC(=O)c1c(NC(=O)CN2CCCCC2)sc(CN(C)C)c1-c1ccccc1		inconclusive: 3.98 µM [inhibitor, partial curve, poor fit]
COc1ccc(C(c2nnnn2CC2CCCO2)N2CCN(c3ccccc3)CC2)cc1 (centres undefined)		inconclusive: 0.501 µM [inhibitor, partial curve, poor fit]
CCN(CC)c1cccc(OCC(=O)N(C)CCC#N)c1		inconclusive: 12.6 µM [inhibitor, single point]
O=C(NCc1ccc(Cl)cc1)c1cnc2sc(N3CCCCCC3)nn2c1=O	inactive: 0.691% [at 46.1 µM]	
CCCOc1ccc(-c2cccc(NS(=O)(=O)c3cc(OC)ccc3OC)c2)nn1	inactive: 0.396% [at 46.1 µM]	
O=C1C2C(C(=O)N1Cc1ccco1)C1C=CC2C12CC2 (centres undefined)	inactive: 3.27%	
CCN(CC)c1ccc(SS(=O)(=O)O)cc1		inconclusive: 20.6 µM [inhibitor, single point] and inconclusive: 17.8 µM [inhibitor, single point]
CCOC(=O)Cn1cc(C(=O)C2CC2)c2ccccc21		inconclusive: 8.2 µM [activator, partial curve]
Cc1ccc(C)n1-n1c(C)nc2sc3c(c2c1=O)CCCCC3		inconclusive: 35.5 µM [inhibitor, single point]
N/C(=N\OC(=O)c1cccs1)c1cccc(Br)c1		inconclusive: 25.1 µM [inhibitor, single point]
Cc1cc(C(=O)COC(=O)Cc2n[nH]c(=O)c3ccccc23)c(C)n1-c1cccc(C(F)(F)F)c1		inconclusive: 29.1 µM [inhibitor, single point]

In another format: results already given.
Compound,"activity change, negative = inhibition",Potency
CC(C)(C)c1ccc(OCCC(=O)Nc2cccc(S(=O)(=O)N3CCCCC3)c2)cc1,,"inconclusive: 5.62 µM [inhibitor, single point]"
O=C(Nc1ccc2c(c1)OCCO2)C(=S)NCc1ccccc1,inactive: 25.1%,
CCOC(=O)c1c(NC(=O)CN2CCCCC2)sc(CN(C)C)c1-c1ccccc1,,"inconclusive: 3.98 µM [inhibitor, partial curve, poor fit]"
O=C1C2C(C(=O)N1Cc1ccco1)C1C=CC2C12CC2 (centres undefined),inactive: 3.27%,
N/C(=N\OC(=O)c1cccs1)c1cccc(Br)c1,,"inconclusive: 25.1 µM [inhibitor, single point]"

(continued)

Compound	activity change, negative = inhibition	Potency
CCCCN(C)CCNC(=O)C1CCN(c2nc3ccc(CC)cc3s2)CC1	inactive: 25.9% [at 46.1 µM]	
Cc1cc(C)cc(-n2nnc(C(=O)NCc3ccco3)c2N)c1	inactive: 3.29%	
Cc1cccc(Cn2c(=O)n(CCCC(=O)NCc3ccccc3Cl)c(=O)c3ccccc32)c1		inconclusive: 22.4 µM [inhibitor, single point]
O=C(N/N=C/c1ccc([N+](=O)[O-])s1)c1ccccc1		inconclusive: 2.82 µM [inhibitor, full curve, poor fit]
CCCN=C(C)C1=C(O)c2ccccc2C1=O		inconclusive: 29.1 µM [inhibitor, single point]
COc1ccc(S(=O)(=O)NC(C)(C)C)cc1-c1nnc2c3ccccc3c(C)nn12		inconclusive: 51.7 nM [inhibitor, partial curve, poor fit] and inconclusive: 5.62 µM [inhibitor, single point]
Cc1ccc(OCCN2CCN(C(=O)CCC(=O)Nc3nnc(C(C)C)s3)CC2)cc1		inconclusive: 3.16 µM [inhibitor, partial curve]
Nc1nc(-c2ccccn2)nc(N)c1Cc1ccc(Cl)cc1Cl		inconclusive: 16.4 µM [inhibitor, single point]
CCNC(=S)N(Cc1ccc(OC)cc1)C1CC(=O)N(c2ccc(OCC)cc2)C1=O (centres undefined)		inconclusive: 35.5 µM [inhibitor, single point]
COC(=O)Cc1c(O)ccn(CCc2ccc(OC)c(OC)c2)c1=O		inconclusive: 0.316 µM [inhibitor, partial curve, poor fit]
Cc1ccc(S(=O)(=O)c2nc(-c3cccs3)oc2SCC(=O)Nc2cc(C)cc(C)c2)cc1	inactive: -23.5% [at 46.1 µM]	
CCCOC(=O)CCNc1n[nH]c(=O)[nH]c1=O	inactive: 11.7%	
Nc1nc(SCc2ccc3c(c2)OCCO3)n[nH]1		inconclusive: 2.59 µM [activator, full curve, poor fit]
O=C(c1cc2ccccc2oc1=O)N(Cc1cccs1)Cc1ccccc1Cl		inconclusive: 29.1 µM [activator, single point]
Cn1nc(-c2ccccc2)c(C#N)c1Sc1cccc(Cl)c1	inactive: 19%	
COc1ccc(C(O)(CCN2CCCCC2)C2CCCCC2)cc1 (centres undefined)		inconclusive: 35.5 µM [inhibitor, single point]
Cc1oc(-c2ccc(Cl)cc2)nc1CS(=O)CC(=O)NCCc1ccccc1 (centres undefined)		inconclusive: 0.562 µM [activator, partial curve, poor fit]
COc1ccc(NC(=O)CCCSc2ccccc2)cc1S(N)(=O)=O	inactive: -14.6%	
Cc1ncc(CO)c2c1Oc1nc(-c3ccccc3)nc(SCC(=O)N3CCOCC3)c1C2		inconclusive: 28.2 µM [inhibitor, single point]
Cc1ccc(Nc2c3c(nc4nc(-c5cccs5)nn24)CCCC3)cc1F		inconclusive: 22.4 µM [inhibitor, single point]
COc1ccccc1C1N(c2ccc(Cl)cc2)C(=O)C2CCCN21 (centres undefined)		inconclusive: 8.2 µM [inhibitor, partial curve, poor fit]
O=C(c1ccc(CNS(=O)(=O)c2ccc(Br)cc2)cc1)N1CCCCC1		inconclusive: 35.5 µM [inhibitor, single point]
S=C(NCc1cccs1)Nc1cccc(Cl)c1	inactive: -12%	

Compound	activity change, negative = inhibition	Potency
COc1ccc(OC)c(NC(=O)c2cc(-c3cc(C)c(C)cc3O)n[nH]2)c1		inconclusive: 5.62 µM [activator, single point]
CCOC(=O)N1CCN(C(=O)CSc2nnc(-c3ccc(C(C)(C)C)cc3)o2)CC1	inactive: 7.24%	
CCN(CC)S(=O)(=O)c1ccc(N(C)C)c(NC(=O)CSCc2c(C)noc2C)c1		inconclusive: 35.5 µM [inhibitor, single point]
Cc1cccc(CC(=O)N2CC(=O)Nc3ccc(C)cc3C2c2ccc(F)cc2)c1 (centres undefined)		inconclusive: 17.8 µM [inhibitor, single point]
COc1ccc(OCC(O)CNC(=O)c2ccc(OC)cc2)cc1 (centres undefined)		inconclusive: 1.64 µM [inhibitor, partial curve, poor fit]
CCOc1ccccc1NC(=O)C1CCN(c2ccc(S(=O)(=O)N3CCCC3)cc2)CC1	inactive: -9.71%	
O=C(CSc1nnc(Cn2nnc3ccccc32)o1)N(Cc1ccc(Cl)cc1)c1ccccc1		inconclusive: 11.2 µM [inhibitor, partial curve]
NNc1ccc2c(C(F)(F)F)cc(C(F)(F)F)nc2n1	inactive: 0.151% [at 46.1 µM]	
CCOc1ccc(-n2ccnc2SCC(=O)Nc2cccc3ccccc23)cc1	inactive: 3.03% [at 46.1 µM]	
Nc1nc(CN2CCN(Cc3ccccc3)CC2)nc(Nc2ccc3c(c2)OCCO3)n1	inactive: -4.24%	
Cc1cccc(C(=O)Nc2ccccc2-c2nnn(CC(=O)Nc3ccc4c(c3)OCCO4)n2)c1		inconclusive: 0.517 µM [inhibitor, full curve, poor fit]
CSc1ccc(NC(=O)C2CCN(c3ncccn3)CC2)cc1	inactive: 5.52% [at 46.1 µM]	
COc1ccc(N(Cc2cccs2)C(=O)COc2cccc(C)c2C)cc1		inconclusive: 35.5 µM [inhibitor, single point]
CC(=O)Nc1ccc(-c2nc(C)c(C(C)=O)n2O)cc1		inconclusive: 23.1 µM [activator, single point]
CCc1cc2c(-c3ccccc3)cc(=O)oc2cc1OCC(C)=O		inconclusive: 15.8 µM [inhibitor, single point]
Cc1cc(OC(=O)c2ccccc2Br)cc(=O)n1C	inactive: -8.04%	
Cc1ccccc1OCCOc1ccccc1C=C(C#N)C#N		inconclusive: 20.6 µM [inhibitor, single point]
COc1cc(OC)c(NS(=O)(=O)c2c(C(=O)N3CCCCCC3)c(C)n(C)c2C)cc1Cl	inactive: 8.03% [at 46.1 µM]	
Cc1c(C)n(CC(O)CN2C(=O)c3ccccc3S2(=O)=O)c2ccccc12 (centres undefined)		inconclusive: 5.8 µM [inhibitor, full curve, poor fit]
OCc1nc2ccccc2n1CC(O)Cn1ccc2ccccc21 (centres undefined)	inactive: -22.4%	
O=C(OCn1ncc(Br)c(Br)c1=O)c1ccc(F)cc1		active: 12.6 µM
COC(=O)CC1Oc2ccc(F)cc2-n2cc(-c3ccc(C)cc3)nc21 (centres undefined)		inconclusive: 5.62 µM [inhibitor, partial curve, poor fit]
C[n+]1c2n(c3ccccc31)N=C(c1ccccc1)CS2		inconclusive: 12.6 µM [inhibitor, partial curve, poor fit] and inconclusive: 35.5 µM [inhibitor, single point]
